From PubChem BioAssay AID1439 (NMMLSC, 2008)
In all, about 220,000 compounds went through this assay and about 770 (0.35%) were called active. This list was built around the results that the source calls inconclusive (neither active nor inactive); the mix of calls is not that of the screen. Cut-off read from the data, not from the text of the source: active = binding response below about 49% or above about 150%; inconclusive = no clear call, values can overlap the other calls; inactive = in between.

Amino acid sequences for entries named in this document (tags omitted).
UniProt P09471, whole entry, looked up: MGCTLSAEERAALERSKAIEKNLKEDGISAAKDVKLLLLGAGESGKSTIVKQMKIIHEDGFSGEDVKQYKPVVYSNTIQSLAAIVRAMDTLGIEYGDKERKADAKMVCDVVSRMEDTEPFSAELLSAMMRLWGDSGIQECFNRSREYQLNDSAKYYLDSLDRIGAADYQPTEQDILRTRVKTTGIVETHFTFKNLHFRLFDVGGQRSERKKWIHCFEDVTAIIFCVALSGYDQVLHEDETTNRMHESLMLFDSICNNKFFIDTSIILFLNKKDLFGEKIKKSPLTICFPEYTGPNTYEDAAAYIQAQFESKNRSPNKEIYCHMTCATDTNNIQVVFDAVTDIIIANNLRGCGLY

These compounds were tested against Guanine nucleotide-binding protein G(o) subunit alpha (Homo sapiens) (UniProt P09471) (assay: RGS7-Galphao binding modulators, primary screen, biochemical, multiplexed bead flow cytometry (AID 1439;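 note: fluorescent Galphao held in activated GDP-AlF4 state binding bead-coupled RGS7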)). Conditions: at 10 µM, actives lie on both sides.

SMILES	binding response (% of control)
CCOc1ccc(N/C(C)=C/C(=O)c2ccc3c(c2)OCCO3)cc1	inconclusive: 16.1%
CC1CCN(C(c2nnnn2CCc2ccccc2)C(C)C)CC1 (stereo not drawn)	inactive: 96%
Cc1ccc(NC(=O)COc2cccc(/C=C3\SC(=S)N(CCC(=O)O)C3=O)c2)cc1Cl	inconclusive: 76.4%
CCN1CCN(CCNC(=O)c2ccc(CS(=O)(=O)c3ccccc3C)o2)CC1	inactive: 120%
NC(=S)NC(=O)c1ccccc1	inconclusive: 310%
CCOC(=O)c1ccc(OC)c(OC)c1Cl	inconclusive: 82.2%
CCCCCCN(C(=O)CCCCCN1C(=O)NC(c2cccc([N+](=O)[O-])c2)C(C(=O)OCc2ccccc2)=C1C)C(C(=O)NCCCC)c1ccc(OCC(=O)OC)c(C(=O)OC)c1 (stereo not drawn)	inconclusive: 70.6%
CC(C)(c1ccccc1)c1ccc(OCC(O)CNC2CCN(Cc3ccccc3)CC2)cc1 (stereo not drawn)	inactive: 102%
N/C(=N\OC(=O)c1ccc(Br)o1)c1ccccn1	inconclusive: 94.4%
CC(NC(=O)c1cccc(S(=O)(=O)N(C)C)c1)c1nc2ccccc2[nH]1 (stereo not drawn)	inconclusive: 92.3%
CCOC(=O)c1sc(=NC(=O)CCSc2ccccc2)n(C)c1C	inconclusive: 128%
Cc1nn(Cc2cccc(C(=O)NN)c2)c(C)c1Cl	inconclusive: 176%
CCOC(=O)N1CCC(NS(=O)(=O)c2ccc(C)c(Cl)c2)CC1	inconclusive: 103%
OCCC1CN(Cc2cnc(-c3ccc(Cl)cc3)nc2)CCN1C1CCCC1 (stereo not drawn)	inconclusive: 93.9%
OC(c1ccc(Cl)cc1)C(O)c1nc2ccccc2[nH]1 (stereo not drawn)	inactive: 109%
COC(OC)c1ccc(C#N)c(SCc2ccc(C)cc2)n1	inconclusive: 76%
O=[N+]([O-])c1ccc(O)c(/C=N/Nc2ccccc2Cl)c1	inconclusive: 94.6%
O=C(Nc1cccc([N+](=O)[O-])c1)c1ccc(N2CCCC2=O)cc1	inconclusive: 122%
O=C(Nc1ccc(F)cc1)/C(=C1/CCCCCN1)[N+](=O)[O-]	inconclusive: 89.4%
O=C1c2cccc3c([N+](=O)[O-])ccc(c23)C(=O)N1CCc1ccccn1	inconclusive: 90.3%

SMILES	binding response (% of control)
COc1cc(/C=C(\C#N)C(=O)Nc2ccccc2C(=O)O)cc(Cl)c1OC	inconclusive: 101%
COc1cccc(CN(C)CC(=O)Nc2ccccc2C(=O)Nc2ccccc2)c1	inconclusive: 95.9%
Cc1nn(-c2ccccc2)c(Cl)c1/C=N/Nc1nncc(=O)[nH]1	inconclusive: 112%
CCN(CC)C(=O)[C@]1(c2ccccc2)C[C@@H]1CN	inactive: 105%
CC(NCc1cc(Br)ccc1OCC(=O)NCc1ccccc1)c1ccccc1 (stereo not drawn)	inactive: 91.6%
Cc1noc(C)c1C(=O)OCC(=O)N1CCN(S(=O)(=O)c2ccc3ccccc3c2)CC1	inconclusive: 119%
O/N=C/c1ccnc(SCc2ccccc2)n1	inconclusive: 495%
C/C(=N/NC(=O)Cc1cc(=O)[nH][nH]1)c1ccc([N+](=O)[O-])cc1	inactive: 98%
C=CCn1c(SCC(=O)NCc2ccco2)nc2ccccc2c1=O	inactive: 93.4%
Cn1ccnc1SCC(=O)c1ccc([N+](=O)[O-])cc1	inconclusive: 97.5%
CNc1nc(N)c([N+](=O)[O-])c(Nc2cccc(Cl)c2)n1	inconclusive: 97%
Cc1ccc2cc(C3CC(c4ccco4)=NN3S(C)(=O)=O)c(Cl)nc2c1 (stereo not drawn)	inconclusive: 231%
CCCn1c(N2CCN(C)CC2)nc2c1c(=O)[nH]c(=O)n2C	inactive: 101%
CC(C)c1[nH]nc2c1C(C1C=CCCC1)C(C#N)=C(N)O2 (stereo not drawn)	inconclusive: 117%
CN(C)/C=C/C(=O)c1cnc(-c2ccccc2)s1	inactive: 102%
CCc1ccc(-c2nc(SCC(=O)N3CCOCC3)n[nH]2)cc1	inactive: 97.2%
COc1ccc(C2=NOC3(CC(=O)N(c4ccc(F)cc4)C3=O)C2)cc1 (stereo not drawn)	inconclusive: 126%
Cc1cccn2c(=O)c(/C=C(\C#N)C(=O)NCc3ccco3)c(N3CCOCC3)nc12	inconclusive: 255%
CCCC(CCC)=NNC(=O)c1ccccc1F	inconclusive: 99.2%
COc1ccc(-n2c(=O)c3c4c(sc3n(CC(N)=O)c2=O)CCCCC4)cc1	inconclusive: 124%

SMILES	binding response (% of control)
COCCOc1ccc(C(F)(F)F)cc1NC(=O)c1ccc(C)cc1	inactive: 146%
Cc1ccc2c(C(=O)CNc3nncs3)c(C)[nH]c2c1	inconclusive: 26.7%
CN(C)C(=O)C#Cc1ccccc1	inconclusive: 388%
Cn1c(-c2csc(-c3ccccc3)n2)n[nH]c1=S	inconclusive: 101%
OC(CN1CCCCC1)Cn1c(C(F)(F)F)nc2ccccc21 (stereo not drawn)	inactive: 98.5%
CCOC(=O)c1cn[nH]c1NC(=S)Nc1ccccc1	inconclusive: 21.4%
CCCCCN(C(=O)CN1CCC(Cc2ccccc2)CC1)c1c(N)n(CCCC)c(=O)[nH]c1=O	inconclusive: 98%
O=C(O)c1ccc(Nc2ncc([N+](=O)[O-])cc2[N+](=O)[O-])cc1	inactive: 100%
CC(=O)Nc1ccc(Nc2cc(C(C)C)nc3c(-c4ccccc4)c(C)nn23)cc1	inconclusive: 89.3%
CN1C(C(=O)NCc2cccc(C(F)(F)F)c2)CC2Cn3c(nc4cc(Cl)c(Cl)cc43)C21 (stereo not drawn)	inconclusive: 98.5%
COc1cccc(Nc2nc(N)nc(CCl)n2)c1	inconclusive: 102%
COc1cc(/C=N/n2cc(-c3ccccc3)[nH]c2=S)cc(OC)c1O	inconclusive: 159%
O=C(Nc1cccc2ccccc12)C(=O)C1C(=O)Nc2ccccc21 (stereo not drawn)	inconclusive: 14.3%
COCCSc1ccccc1C(=O)N1CCc2ccccc2C1	inconclusive: 126%
Cc1ccc(C(=O)COc2ccc3ccc(=O)oc3c2)cc1	inconclusive: 94.5%
C=CCc1cccc2cc(C(=O)NNC(=O)CC#N)c(=O)oc12	inconclusive: 98.8%
C#CCn1c(O)c(N=NC(=O)C(O)c2ccccc2)c2ccccc21 (stereo not drawn)	inconclusive: 97.7%
Cc1cccc(NC(=O)COC(=O)c2ccc3c(c2)OCO3)c1C	inconclusive: 101%

Five of these compounds in another layout:
SMILES | binding response (% of control)
O=C(Nc1cccc2ccccc12)C(=O)C1C(=O)Nc2ccccc21 (stereo not drawn) | inconclusive: 14.3%
COCCSc1ccccc1C(=O)N1CCc2ccccc2C1 | inconclusive: 126%
C=CCc1cccc2cc(C(=O)NNC(=O)CC#N)c(=O)oc12 | inconclusive: 98.8%
C#CCn1c(O)c(N=NC(=O)C(O)c2ccccc2)c2ccccc21 (stereo not drawn) | inconclusive: 97.7%
Cc1cccc(NC(=O)COC(=O)c2ccc3c(c2)OCO3)c1C | inconclusive: 101%
